Our source for the binding signal values is paper PMC7819943, “Rice protein-binding microarrays: a tool to detect cis-acting elements near promoter regions in rice”.

Amino acid sequences for entries named in this document (tags omitted).
UniProt Q0JBA9, entry or part of it: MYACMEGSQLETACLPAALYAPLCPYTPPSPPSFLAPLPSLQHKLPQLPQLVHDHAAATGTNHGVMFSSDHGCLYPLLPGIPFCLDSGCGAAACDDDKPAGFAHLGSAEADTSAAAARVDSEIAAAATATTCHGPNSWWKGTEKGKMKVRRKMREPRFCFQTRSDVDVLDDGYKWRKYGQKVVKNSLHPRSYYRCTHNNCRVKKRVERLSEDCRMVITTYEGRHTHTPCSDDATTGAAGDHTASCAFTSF

This is one part of the list.

In the test the target is OsWRKY34 (Oryza sativa, UniProt Q0JBA9 1-250). Kind of test: protein-binding microarray (RPBM); PBS, 2% BSA, 51.3 ng/ul salmon testes DNA, 50 uM zinc acetate, 200 nM TF, 25 C, 1 h; high values mean tight binding. The conditions noted are these: protein: recombinant; tags: N-terminal polyhistidine and DsRed monomer fusion (pET32a); label: CyDye5-dUTP incorporated in the synthesized complementary strand; 3' TTTTT single-stranded linker to array surface; dsDNA, one strand shown. Summed up: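 Binding signal is reported as fluorescence intensity per feature (arbitrary units) from an Axon 4000B scanner. Incubation used 200 nM of each Ni–NTA-purified, N-terminally polyhistidine- and DsRed-fused transcription factor from E. coli BL21-CodonPlus on a double-stranded custom Agilent array for 1 h at 25 °C, with 50 µM zinc acetate in the buffer, followed by washing.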
Take “TGTTTAATACCACGGTTGCTTGCTGTTGTAGCTCTATTCCCGGAGTCACCTAGTGCAG”: the binding signal is 9180 fluorescence intensity (a.u.).
Consider “ATACTTACATTTCTCAATGTCCATGTAGCCAATCATGTATCGGAGTCACCTAGTGCAG”, for which the binding signal was 9670 fluorescence intensity (a.u.).
For the sequence “CTCTGTTCATCCATTGGTCGGCCAGCGCGGCGCGCACACGCGGAGTCACCTAGTGCAG”, the binding signal was 8930 fluorescence intensity (a.u.).
With “TCTCTTCACACCATCACATGTAGTGCGTGTACTCCTAGAGCGGAGTCACCTAGTGCAG”, the binding signal is 9520 fluorescence intensity (a.u.).
Take “TAATACTCCTACTATGGACTTGTTCTCCGTGTTGCTTATTCGGAGTCACCTAGTGCAG”: the binding signal was 10200 fluorescence intensity (a.u.).
With “CCGATGATTCTACTGGATCCGCCGTTTCTCCGCGTTCGATCGGAGTCACCTAGTGCAG” the figure was 8300 fluorescence intensity (a.u.).
As for “CTCCTCGGTCTTTGTGCGTGCTTGTAGTGTCTGTCCACTCCGGAGTCACCTAGTGCAG”, the binding signal is 11100 fluorescence intensity (a.u.).
Consider “ACTAATAGTGTTTCTTCATGACCTACCACTTCTTTATACGCGGAGTCACCTAGTGCAG”, for which the binding signal was 11100 fluorescence intensity (a.u.).
Turning to “CATAACATACATTGGTCGTCCTGTAAGGCATGTTTCTTTTCGGAGTCACCTAGTGCAG”, the binding signal was 8620 fluorescence intensity (a.u.).
The result for “TCCTCTGTCATTGCCTCCTCTGTATGTGTGTGTTTCATCGCGGAGTCACCTAGTGCAG” reads 11800 fluorescence intensity (a.u.).
With “TTTTTTAAGTTGCATAGGGGTCTTGGTTCTCCTTCTCCTCCGGAGTCACCTAGTGCAG” the figure was 9710 fluorescence intensity (a.u.).
With “GCTGATGGATCTTGTAATCGTACCTGTGAAGTTTGTGCTACGGAGTCACCTAGTGCAG” the figure was 9500 fluorescence intensity (a.u.); with “ATTCTTGCGTTCAAGTTCAGTACATATACGTATCTCTCACCGGAGTCACCTAGTGCAG”, 9390 fluorescence intensity (a.u.).
Turning to “CATGGTTTTACTATTGGTCCTTTACATATTAAAGGTTTCTCGGAGTCACCTAGTGCAG”, the binding signal is 8740 fluorescence intensity (a.u.).
The result for “ATGGTTGTTTTCATTTTGTTGGTCAGGGAATTATATGTCACGGAGTCACCTAGTGCAG” reads 14500 fluorescence intensity (a.u.); that for “TATTTGGTCGTCGCTGGTTGTTTGTAGCACGCCAGCTCCACGGAGTCACCTAGTGCAG”, 8090 fluorescence intensity (a.u.); that for “ATATATATGGATTAGGTTTGGATTGGGGATCATTTGTATGCGGAGTCACCTAGTGCAG”, 8360 fluorescence intensity (a.u.).
On to “CTGTATTCTTTGATTCTTTCAATTGTTGCCATATATTCCCCGGAGTCACCTAGTGCAG”, for which the binding signal was 9780 fluorescence intensity (a.u.).
The result for “TAACTTTGCTATTAATTAGGGGTATTTTGGTTCTTTTATACGGAGTCACCTAGTGCAG” reads 16100 fluorescence intensity (a.u.); that for “ACCCAGGGTACGAGCTAGGCTAAATGCATTTCTTTTCTTCCGGAGTCACCTAGTGCAG”, 9590 fluorescence intensity (a.u.).
As for “TTGCTTCTTCTTCTTCTCTCTCTCTACAACTCAAGCTAATCGGAGTCACCTAGTGCAG”, the binding signal is 9480 fluorescence intensity (a.u.).
In the case of “AACTCGTCAATGGCCTCTAGTTCCCCTTTTCTCCTCTGTACGGAGTCACCTAGTGCAG”, the binding signal is 8410 fluorescence intensity (a.u.).
On to “AGTCGTCCTCAAGCTTGACAAACCCGGTGTGATGTCTCGTCGGAGTCACCTAGTGCAG”, for which the binding signal was 9030 fluorescence intensity (a.u.).
The result for “AGGAGGGGTATTGTTGCTAATCTTGATTGTTTTACTCTTGCGGAGTCACCTAGTGCAG” reads 17000 fluorescence intensity (a.u.); that for “TCTGGCGACCTCGCTGTCATCGTCGCCGCCGCGGTTCCCCCGGAGTCACCTAGTGCAG”, 8740 fluorescence intensity (a.u.); that for “ACCATCTCCTCGTCGTAGCCATCGATCACCACGCCCACCTCGGAGTCACCTAGTGCAG”, 10100 fluorescence intensity (a.u.).
The result for “TTCCTCTCTTTTTTTCCCTGATCACTTCCTTGGAAAGCAACGGAGTCACCTAGTGCAG” reads 8340 fluorescence intensity (a.u.).
Turning to “TTCCTGGTTGCTTCTTTTGCAGTTTTTTTTTTCCCTTCCTCGGAGTCACCTAGTGCAG”, the binding signal was 10100 fluorescence intensity (a.u.).
In the case of “ATTTTGTCTTTTTTTACGGTCAACTATAATTTTTCTGACTCGGAGTCACCTAGTGCAG”, the binding signal is 8490 fluorescence intensity (a.u.).
With “CCATCTGTGTACTCCAATCTTACCAAGATCAGATAAATATCGGAGTCACCTAGTGCAG” the figure was 8790 fluorescence intensity (a.u.).
With “TTTCGATACCTTTGAATTATATACTTGTTATACTTTCCTCCGGAGTCACCTAGTGCAG” the figure was 8060 fluorescence intensity (a.u.); with “ATGGCTTTGTTAACATAACACCAGCTTTGCTGTCTCGGTTCGGAGTCACCTAGTGCAG”, 9110 fluorescence intensity (a.u.); with “TAAATAATTTGTCTATCACTTTTCCTACTCTTTGCACTTACGGAGTCACCTAGTGCAG”, 10400 fluorescence intensity (a.u.).
In the case of “TTTCCATCCCATTTCCATTGAAGCCAACATAATTATCAATCGGAGTCACCTAGTGCAG”, the binding signal was 8480 fluorescence intensity (a.u.).
For the sequence “CTCGTTCTTCCATTTCTCTTAATTTCTCCTCCATTATCACCGGAGTCACCTAGTGCAG”, the binding signal is 8860 fluorescence intensity (a.u.).
With “AACACAATACTACAACACTACACTAACGCTCACACACACTCGGAGTCACCTAGTGCAG” the figure was 9290 fluorescence intensity (a.u.).
Consider “GGAGCCAAACCCACTTCCAGTAGCATACAACATCACACGGCGGAGTCACCTAGTGCAG”, for which the binding signal was 8680 fluorescence intensity (a.u.).
As for “ATTCATTGCCGATACTTCCGCCATCTCCTCCATTGCCGTCCGGAGTCACCTAGTGCAG”, the binding signal was 9060 fluorescence intensity (a.u.).
The result for “CATCCACCGCAATGCTCAAGCTTCCAATGCAATTCTCTCCCGGAGTCACCTAGTGCAG” reads 10100 fluorescence intensity (a.u.); that for “TTTTCTCACCACTCTCTCTTTCGTGTTCTCTCTCTCTTGTCGGAGTCACCTAGTGCAG”, 12500 fluorescence intensity (a.u.).
With “TATCCTGTTCACCTCAACGACTAATTTTATTGTGCTTATACGGAGTCACCTAGTGCAG” the figure was 10400 fluorescence intensity (a.u.); with “GGCCGCTTCTTCCCCACTGGGCCTCCGCGTTTGGTTGTTTCGGAGTCACCTAGTGCAG”, 8500 fluorescence intensity (a.u.).
